Measurements reported in PubChem BioAssay AID504793 (Drosophila RNAi Screening Center, 2011).
The deposit covers about 23,000 reagents; shown is a random part of those with a known target gene and a result. Of all reagents, 62 (0.27%) are marked active. 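Calls come from follow-up tests whose scores are not deposited, so confirmed genes may have low counts here; counts are not normalised per plate.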 The raw values are shown without normalisation. A number with no mark means an inactive call. Reagent sequences are not shown.

Assay: 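Genes required for cells to halt at G2/M after double-strand DNA breaks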 (primary screen)
Cells: Drosophila S2R+ cells
Reagent: long dsRNA against Drosophila genes, about 0.25 µg dsRNA per well
Time to read-out: 4 days of dsRNA, then 4 hours of drug before read-out
Challenge: doxorubicin 0.5 µM for 4 hours to cause double-strand breaks, in cells also given a low, harmless dose of dsRNA against nbs to sensitise the assay
Detection: 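Per-well count of mitotic cells stained for phospho-histone H3 after doxorubicin exposure, used as mitotic index; counts are raw and not normalised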
Direction: mitotic cells: higher = more cells in mitosis, weaker G2 arrest
Rule for the call: 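a call needs confirmation in secondary tests, with other dsRNAs and a check of mitotic timing without damage, not just a high primary count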
Calls: active = confirmed in follow-up tests; inactive = not confirmed

CG11560 (GeneID 39376) [DRSC09843] → mitotic cells, replicate 1 = 10
CG11560 (GeneID 39376) [DRSC27017] → mitotic cells, replicate 1 = 3
Cyp40 (GeneID 39121) [DRSC10980] → mitotic cells, replicate 1 = 3
Cyp40 (GeneID 39121) [DRSC29553] → mitotic cells, replicate 1 = 4
CG17075 (GeneID 33191) [DRSC00483] → mitotic cells, replicate 1 = 8
CG17075 (GeneID 33191) [DRSC26505] → mitotic cells, replicate 1 = 6
s-cup (GeneID 36371) [DRSC06277] → mitotic cells, replicate 1 = 3
s-cup (GeneID 36371) [DRSC06278] → mitotic cells, replicate 1 = 8
s-cup (GeneID 36371) [DRSC24270] → mitotic cells, replicate 1 = 2
CG32454 (GeneID 318037) [DRSC11652] → mitotic cells, replicate 1 = 2
HmgD (GeneID 37481) [DRSC04619] → mitotic cells, replicate 1 = 11
HmgD (GeneID 37481) [DRSC26171] → mitotic cells, replicate 1 = 6
CG9297 (GeneID 41688) [DRSC16469] → mitotic cells, replicate 1 = 7
CG9297 (GeneID 41688) [DRSC25256] → mitotic cells, replicate 1 = 4
Nop60B (GeneID 37873) [DRSC04627] → mitotic cells, replicate 1 = 3
CG4914 (GeneID 39597) [DRSC10458] → mitotic cells, replicate 1 = 2
PIG-S (GeneID 42979) [DRSC14643] → mitotic cells, replicate 1 = 5
PIG-S (GeneID 42979) [DRSC15388] → mitotic cells, replicate 1 = 12
PIG-S (GeneID 42979) [DRSC15952] → mitotic cells, replicate 1 = 4
Cpr49Ae (GeneID 36351) [DRSC07201] → mitotic cells, replicate 1 = 1
Cpr49Ae (GeneID 36351) [DRSC27662] → mitotic cells, replicate 1 = 11
DnaJ-1 (GeneID 38643) [DRSC11145] → mitotic cells, replicate 1 = 3
CG14864 (GeneID 41846) [DRSC14987] → mitotic cells, replicate 1 = 5
qkr58E-1 (GeneID 37561) [DRSC04709] → mitotic cells, replicate 1 = 2
qkr58E-1 (GeneID 37561) [DRSC23841] → mitotic cells, replicate 1 = 3
colt (GeneID 33470) [DRSC00808] → mitotic cells, replicate 1 = 6
colt (GeneID 33470) [DRSC29025] → mitotic cells, replicate 1 = 5
CG5973 (GeneID 34023) [DRSC02918] → mitotic cells, replicate 1 = 8
CG14043 (GeneID 33714) [DRSC02368] → mitotic cells, replicate 1 = 7
CG14043 (GeneID 33714) [DRSC29925] → mitotic cells, replicate 1 = 11
Grl65a (GeneID 117342) [DRSC08837] → mitotic cells, replicate 1 = 2
Grl65a (GeneID 117342) [DRSC25986] → mitotic cells, replicate 1 = 4
asRNA:CR31084 (GeneID 10178907) [DRSC21649] → mitotic cells, replicate 1 = 15
CG10600 (GeneID 35142) [DRSC02074] → mitotic cells, replicate 1 = 5
